Results are given in words; binding and its absence hold for the method and conditions named. Binding seen in cells or lysates may run through a third protein. Some binding calls cover weakened binding; strength is not graded here.
Molecular target: paxillin (human (endogenous in MCF-7)) (UniProt P49023)
Assay: co-IP; cells lysed in cold RIPA buffer with phosphatase and protease inhibitors; lysates pre-cleared 1 h with protein A/G-agarose beads, incubated overnight with paxillin-Trap agarose beads at 4 °C; bound protein eluted and blotted

Amino acid sequences for entries named in this document (tags omitted).
UniProt P49023: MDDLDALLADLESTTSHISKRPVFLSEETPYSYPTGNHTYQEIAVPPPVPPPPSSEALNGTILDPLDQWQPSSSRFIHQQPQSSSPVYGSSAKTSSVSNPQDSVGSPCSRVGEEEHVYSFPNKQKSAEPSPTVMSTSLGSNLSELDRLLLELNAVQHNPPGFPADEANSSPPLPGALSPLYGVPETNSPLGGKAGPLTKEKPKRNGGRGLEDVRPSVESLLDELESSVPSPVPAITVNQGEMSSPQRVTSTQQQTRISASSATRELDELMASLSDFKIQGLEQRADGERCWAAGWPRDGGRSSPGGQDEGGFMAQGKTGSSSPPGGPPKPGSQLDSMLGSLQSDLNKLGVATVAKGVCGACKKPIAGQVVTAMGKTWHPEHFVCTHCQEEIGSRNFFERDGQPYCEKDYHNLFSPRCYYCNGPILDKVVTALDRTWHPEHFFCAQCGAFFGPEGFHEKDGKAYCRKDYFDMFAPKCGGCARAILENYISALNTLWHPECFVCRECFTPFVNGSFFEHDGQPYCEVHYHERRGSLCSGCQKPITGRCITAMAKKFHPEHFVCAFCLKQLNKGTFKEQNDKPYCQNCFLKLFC

binding: binds
B1: SEPT9 isoform 1 protein (SEPT9_i1) (protein, UniProt Q9UHD8-1 1-586)
chain: MKKSYSGGTRTSSGRLRRLGDSSGPALKRSFEVEEVETPNSTPPRRVQTPLLRATVASSTQKFQDLGVKNSEPSARHVDSLSQRSPKASLRRVELSGPKAAEPVSRRTELSIDISSKQVENAGAIGPSRFGLKRAEVLGHKTPEPAPRRTEITIVKPQESAHRRMEPPASKVPEVPTAPATDAAPKRVEIQMPKPAEAPTAPSPAQTLENSEPAPVSQLQSRLEPKPQPPVAEATPRSQEATEAAPSCVGDMADTPRDAGLKQAPASRNEKAPVDFGYVGIDSILEQMRRKAMKQGFEFNIMVVGQSGLGKSTLINTLFKSKISRKSVQPTSEERIPKTIEIKSITHDIEEKGVRMKLTVIDTPGFGDHINNENCWQPIMKFINDQYEKYLQEEVNINRKKRIPDTRVHCCLYFIPATGHSLRPLDIEFMKRLSKVVNIVPVIAKADTLTLEERVHFKQRITADLLSNGIDVYPQKEFDEDSEDRLVNEKFREMIPFAVVGSDHEYQVNGKRILGRKTKWGTIEVENTTHCEFAYLRDLLIRTHMQNIKDITSSIHFEAYRVKRLNEGSSAMANGMEEKEPEAPEM
